From PubChem BioAssay AID1347423 (Functional Genomics Laboratory (NCATS/FGL), 2020)
The campaign covered roughly 52,000 sequences. About 210 (0.4%) were called active.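 Rule for the calls: active = gene whose silencing raises cell survival under the drug, median off-target-corrected z-score across its silencing RNAs 2 or more; inactive = the rest.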 The list shows a part of the results.

experiment: Resistance to Poly (ADP-Ribose) Polymerase inhibitor: Gene Identification via Genome-wide siRNA Screen; settings: mouse BRCA2 R2336H ES cells, olaparib, CellTiter-Glo viability; stronger effect = higher value
Outline: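 Genome-wide siRNA screen (3 siRNAs/gene, 20 nM) in mouse ES cells carrying hypomorphic BRCA2 R2336H; olaparib 500 nM added 48 h post-transfection, CellTiter-Glo viability 72 h later. Normalized to plate-median negative control; MAD z-scores, gene median, seed-adjusted.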

Sequence | z-score
GGAGGAACCCAAGUAGCCUTT against Serf2 | inactive: -0.252
CCAGGUGGAGUCCAUCUUCTT against Acacb | inactive: 1.68
GGAUCAACAUGGUCUCCUCTT against 1700095N21Rik | inactive: -1.08
GGAUUUCAAUAGGCUCUCUTT against Rnf19 | inactive: -0.193
GGAGUUGAAAGCUCUGCUCTT against S100a15 | inactive: 0.776
GGAGGUAAAGAUCAUGUCATT against Ddr1 | inactive: 0.596
GGAUGAAGGCCAUUCAAACTT against Hnrpd | inactive: 1.47
GGGUUACGCCUUCAUUAAUTT against Sf3b4 | inactive: -2.58
CCUUGGACUGAUAUUAGCUTT against Dtx3 | inactive: -2.03
GGAAGAACCCUGCUACAUCTT against Mrpl37 | inactive: -0.0162
GGACAUGUCGGAUGGCUUCTT against P4ha1 | inactive: 0.93
GGUGCAGAAGCUCAAGUUCTT against Cpne2 | inactive: 2.17
GCCAUUGAUUGAACUCUCCTT against Pip5k1b | inactive: 0.565
CGGAAUGAUUCUGACUAAUTT against Mmp7 | inactive: 2.28
GCAUUUAAGUGUUGCAUUGTT against C1qtnf3 | inactive: 0.651
GGCAGAAAAGAAGAAGAAUTT against Ktn1 | inactive: -1.8
GCACACCUACCACAACAUGTT against S100a11 | inactive: -1.01
GGAAGGACUGUCAAAUGGCTT against 1110030J09Rik | inactive: -0.906
CCUUGGCCAAUCUCCACAATT against 2810004N20Rik | inactive: -1.5
GGAAAAACGAUACUUGAUUTT against Gria3 | inactive: -0.0788
GGCACUAUGUUGAAAAAAUTT against 4732452J19Rik | inactive: -1.12
GGCAAGAAAUACAAAGGAUTT against Pik4cb | inactive: -0.754
GGAUAUGACCCUAGAUUUATT against Gpm6b | inactive: 1.08
CGCACGAAGCUCUUUGUGUTT against BC022145 | inactive: -0.477
GGCGACCCUGACUUCUAUATT against Spon1 | inactive: -0.873
GCAAUGAGUACUAUCAUACTT against Gnal | inactive: -0.649
CCUACCGUUACCUAAGUGATT against Kcnj5 | inactive: 0.0775
GGGAGAUUGAGAACUUUGCTT against Gpx7 | inactive: -2.06
GGUUGCAUGGCACAAGUCUTT against Olfr1213 | inactive: 1.02

Some of the entries so far, field by field:
GCACACCUACCACAACAUGTT against S100a11
  z-score: inactive: -1.01
GGAAGGACUGUCAAAUGGCTT against 1110030J09Rik
  z-score: inactive: -0.906
